Data on one substance can be found in paper PMC5609986.

Amino acid sequences for entries named in this document (tags omitted).
UniProt Q9P0L2: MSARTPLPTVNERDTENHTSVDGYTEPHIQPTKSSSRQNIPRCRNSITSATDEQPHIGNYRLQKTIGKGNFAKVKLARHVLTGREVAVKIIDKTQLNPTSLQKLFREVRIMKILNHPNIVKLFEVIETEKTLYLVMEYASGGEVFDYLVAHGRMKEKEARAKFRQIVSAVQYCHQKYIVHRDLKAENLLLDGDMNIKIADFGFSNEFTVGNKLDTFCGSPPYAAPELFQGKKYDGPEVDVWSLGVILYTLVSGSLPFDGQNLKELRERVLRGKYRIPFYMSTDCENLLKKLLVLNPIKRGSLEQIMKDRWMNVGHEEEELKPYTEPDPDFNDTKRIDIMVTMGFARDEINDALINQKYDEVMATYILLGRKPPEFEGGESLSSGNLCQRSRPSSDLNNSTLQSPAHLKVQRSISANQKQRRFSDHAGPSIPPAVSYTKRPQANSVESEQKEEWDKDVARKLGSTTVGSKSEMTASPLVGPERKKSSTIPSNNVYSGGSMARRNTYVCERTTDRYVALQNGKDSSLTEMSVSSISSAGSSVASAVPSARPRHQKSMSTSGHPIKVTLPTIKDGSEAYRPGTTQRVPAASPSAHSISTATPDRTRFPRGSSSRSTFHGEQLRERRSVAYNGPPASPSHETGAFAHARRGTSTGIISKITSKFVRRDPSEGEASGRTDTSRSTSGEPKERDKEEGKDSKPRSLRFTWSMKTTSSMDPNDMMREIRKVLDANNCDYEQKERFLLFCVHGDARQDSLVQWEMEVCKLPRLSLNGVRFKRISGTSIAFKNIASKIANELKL

The target of this experiment is T1, USP21 deubiquitylating enzyme (human (endogenous in HEK293T)) (UniProt Q9UK80).
T1 sequence: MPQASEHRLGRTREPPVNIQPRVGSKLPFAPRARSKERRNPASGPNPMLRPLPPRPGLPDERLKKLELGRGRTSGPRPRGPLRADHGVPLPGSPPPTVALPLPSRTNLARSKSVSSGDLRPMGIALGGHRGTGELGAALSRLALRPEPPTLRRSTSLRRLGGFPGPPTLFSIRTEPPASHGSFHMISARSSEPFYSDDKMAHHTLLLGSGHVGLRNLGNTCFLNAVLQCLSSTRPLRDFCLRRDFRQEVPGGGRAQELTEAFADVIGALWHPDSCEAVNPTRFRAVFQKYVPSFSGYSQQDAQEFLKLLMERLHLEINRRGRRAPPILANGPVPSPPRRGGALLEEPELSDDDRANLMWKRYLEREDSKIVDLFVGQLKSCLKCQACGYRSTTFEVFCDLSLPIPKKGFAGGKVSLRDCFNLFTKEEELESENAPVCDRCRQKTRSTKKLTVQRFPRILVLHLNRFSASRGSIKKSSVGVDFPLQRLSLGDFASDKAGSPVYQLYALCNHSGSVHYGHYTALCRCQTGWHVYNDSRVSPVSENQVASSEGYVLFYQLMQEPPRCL
As to the kind of experiment: co-IP; endogenous proteins; HEK293T cells pretreated overnight with 5 uM MG132; lysed in PLC buffer (50 mM Hepes pH 7.5, 150 mM NaCl, 5 % glycerol, 0.5 % Triton X-100, 1.5 mM MgCl2, 1 mM EGTA, RNAase A, DTT, Na3VO4); antibodies against USP21, MARK1 or isotype control on protein A/G agarose, overnight at 4°C; Western blot. (In western blotting, separated proteins are transferred to a membrane and probed.)

These are yes or no findings as the source states them, for the method shown. Binding seen in cells or lysates may run through a third protein. Some results given as binding are weak or reduced against the parent protein; the word gives no strength.

“Microtubule affinity-regulating kinase 1 (MARK1) (from UniProt Q9P0L2 1-795) (enzyme)”: the binding result is on record as “binds”.
